Experimental data: PubChem BioAssay AID1159584 (Peter MacCallum Cancer Centre, 2016)
Assay: 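Knock-downs that harm CDH1-null cells more than parental MCF10A cells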 (primary screen). System: human MCF10A breast epithelial cells, parental and CDH1-null. Knock-down reagent: siRNA against human genes. Read-out: 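Cell viability by CellTiter-Glo ATP luminescence, each line scaled to the mean of mock wells across plates, then CDH1-null over parental ratio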. Scale: CDH1-null / parental viability ratio: higher = CDH1-null cells survive relatively better than parental; CDH1-null viability vs mock: higher = more viable CDH1-null cells. Units: CDH1-null viability vs mock in fraction of mock.
Shown is one part, drawn at random, of about 18,000 reagents. Not all columns of the deposit are shown. Reagent sequences are not shown. Not given: the amount of reagent, the time to read-out.

Silencing of PSPHP1 gave: CDH1-null / parental viability ratio 1.3; CDH1-null viability vs mock 0.96.
TGFBR2 scored CDH1-null / parental viability ratio 1.09; CDH1-null viability vs mock 1.09.
TTC36 showed CDH1-null / parental viability ratio 0.88; CDH1-null viability vs mock 0.67.
TTC4 showed CDH1-null / parental viability ratio 0.95; CDH1-null viability vs mock 0.8.
With knock-down of OR11H12, the record shows CDH1-null / parental viability ratio 0.94; CDH1-null viability vs mock 0.47.
For ARL8B, the entry reads CDH1-null / parental viability ratio 1.08; CDH1-null viability vs mock 0.8.
PTTG1 gave CDH1-null / parental viability ratio 0.84; CDH1-null viability vs mock 0.63.
YTHDC1 showed CDH1-null / parental viability ratio 0.7; CDH1-null viability vs mock 0.52.
HLA-C showed CDH1-null / parental viability ratio 0.96; CDH1-null viability vs mock 0.94.
Depletion of MORC2 resulted in: CDH1-null / parental viability ratio 0.88; CDH1-null viability vs mock 0.72.
TICAM2 showed CDH1-null / parental viability ratio 1.08; CDH1-null viability vs mock 0.64.
Against ELAC1, the values are CDH1-null / parental viability ratio 0.88; CDH1-null viability vs mock 0.76.
For NOM1, the entry reads CDH1-null / parental viability ratio 0.98; CDH1-null viability vs mock 0.43.
Knock-down of ADAM23 gave: CDH1-null / parental viability ratio 1.25; CDH1-null viability vs mock 0.7.
PAGE4 scored CDH1-null / parental viability ratio 0.97; CDH1-null viability vs mock 0.68.
After knock-down of TMEM171, the screen gave CDH1-null / parental viability ratio 1.29; CDH1-null viability vs mock 0.54.
With knock-down of NT5C3A, the record shows CDH1-null / parental viability ratio 1.44; CDH1-null viability vs mock 1.04.
Knock-down of IGSF6 resulted in: CDH1-null / parental viability ratio 1.28; CDH1-null viability vs mock 0.92.
Against BOK, the values are CDH1-null / parental viability ratio 1.13; CDH1-null viability vs mock 1.06.
With knock-down of RNASE13 the results were CDH1-null / parental viability ratio 0.96; CDH1-null viability vs mock 0.65.
Against RABEP2, the values are CDH1-null / parental viability ratio 0.97; CDH1-null viability vs mock 0.83.
Depletion of ANGEL1 resulted in: CDH1-null / parental viability ratio 1; CDH1-null viability vs mock 0.24.
For EHMT2, the values are CDH1-null / parental viability ratio 0.92; CDH1-null viability vs mock 0.86.
After knock-down of SPACA9, the record shows CDH1-null / parental viability ratio 1; CDH1-null viability vs mock 0.99.

2 entries from above, limited to “CDH1-null / parental viability ratio”:
TMEM171 = 1.29
NT5C3A = 1.44
